Assay [1] deals with T1, HA-tagged ΔRING-TRIM41 (mouse) (UniProt Q5NCC3).
T1 sequence: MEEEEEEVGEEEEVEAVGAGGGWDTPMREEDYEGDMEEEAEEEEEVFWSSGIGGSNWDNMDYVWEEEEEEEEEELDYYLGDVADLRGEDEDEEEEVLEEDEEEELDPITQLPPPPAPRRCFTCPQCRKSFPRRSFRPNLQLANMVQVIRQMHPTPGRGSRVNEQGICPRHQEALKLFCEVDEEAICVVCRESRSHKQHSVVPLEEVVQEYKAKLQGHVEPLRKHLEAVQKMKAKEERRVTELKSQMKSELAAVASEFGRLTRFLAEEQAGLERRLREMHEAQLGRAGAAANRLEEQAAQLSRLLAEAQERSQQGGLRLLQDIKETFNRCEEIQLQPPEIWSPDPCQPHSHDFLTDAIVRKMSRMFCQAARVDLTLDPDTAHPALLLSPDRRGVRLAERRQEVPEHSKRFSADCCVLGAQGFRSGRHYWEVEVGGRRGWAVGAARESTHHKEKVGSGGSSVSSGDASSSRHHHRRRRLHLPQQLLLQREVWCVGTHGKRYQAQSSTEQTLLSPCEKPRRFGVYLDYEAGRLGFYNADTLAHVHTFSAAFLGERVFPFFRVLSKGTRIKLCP
The experiment in a line: co-IP.

For assay [2], the target named is T2, tripartite motif-containing 41 (TRIM41) (mouse (endogenous in testis)) (UniProt Q5NCC3).
T2 sequence: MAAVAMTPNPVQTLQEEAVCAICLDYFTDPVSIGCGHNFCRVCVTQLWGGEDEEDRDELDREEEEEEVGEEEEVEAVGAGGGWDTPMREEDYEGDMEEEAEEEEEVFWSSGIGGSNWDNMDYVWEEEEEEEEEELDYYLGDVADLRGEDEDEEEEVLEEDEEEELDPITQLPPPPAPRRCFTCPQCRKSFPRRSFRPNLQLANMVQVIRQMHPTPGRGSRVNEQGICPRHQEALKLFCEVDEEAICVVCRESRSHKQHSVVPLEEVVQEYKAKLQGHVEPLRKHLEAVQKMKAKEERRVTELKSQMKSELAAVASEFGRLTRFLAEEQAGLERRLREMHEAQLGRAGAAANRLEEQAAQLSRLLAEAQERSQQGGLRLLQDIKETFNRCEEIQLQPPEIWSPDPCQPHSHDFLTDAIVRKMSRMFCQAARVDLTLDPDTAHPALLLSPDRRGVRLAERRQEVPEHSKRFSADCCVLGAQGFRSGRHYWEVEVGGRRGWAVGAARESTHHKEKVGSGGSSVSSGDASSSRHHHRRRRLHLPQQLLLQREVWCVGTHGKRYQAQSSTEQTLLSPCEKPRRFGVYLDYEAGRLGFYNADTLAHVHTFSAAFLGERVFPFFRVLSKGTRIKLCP
The experiment in a line: co-IP.

From article doi:10.1101/2021.11.03.467045 come the findings set out here.

No constants are given. Whether binding was seen depends on the method and setting. Binding seen in cells or lysates may run through a third protein. For some assays here: Sequences can lack the tags named with a protein.

B1: synaptonemal complex protein 3 (SYCP3) (protein, UniProt P70281 1-254)
chain: MLRGCGDSDSSPEPLSKHLKMVPGGRKHSGKSGKPPLVDQPKKAFDFEKDDKDLSGSEEDVADEKAPVIDKHGKKRSAGIIEDVGGEVQNMLEKFGADINKALLAKRKRIEMYTKASFKASNQKIEQIWKTQQEEIQKLNNEYSQQFMNVLQQWELDIQKFEEQGEKLSNLFRQQQKIFQQSRIVQSQRMFAMKQIHEQFIKSLEDVEKNNDNLFTGTQSELKKEMAMLQKKVMMETQQQEMANVRKSLQSMLF
On to B1, for which the binding entry in assay [1] and in assay [2] was “no binding” throughout.
